Experimental data taken from patent US12077599 (SEOUL NATIONAL UNIVERSITY R AND DB FOUNDATION NATIONAL …, dated 2024).
These are yes or no findings as the source states them, for the method shown. Binding can be weak; no strength is given. Tags and fused reporters may be left off the sequences shown.

How the values were obtained:
[1] = biological target: human ROS1 (full-length), expressed in HEK293T cells from a lentiviral vector (human); experiment: immunoprecipitation from lysate of ROS1-transfected HEK293T cells, immunoblot with anti-ROS1 antibody 69D6
[2] = biological target: human ROS1 (full-length), expressed in HEK293T cells from a lentiviral vector (human); experiment: immunoprecipitation from HEK293T lysate, SDS-PAGE, LC-MS of the excised band

B1: 3B20 scFv-rFc fusion protein (Fc fusion, rabbit)
chain: LTQPSSVSANLGGTVKITCSGGSYGYGWYQQKAPGSAPVTVIYDNTNRPSDIPSRFSGSKSGSTGTLTITGVQVEDEAVYYCGSADSSSIATFGAGTTLTVLGQSSRSSGGGGSSGGGGSAVTLDESGGGLQTPGGTLSLVCKASGFSFSDRGMHWMRQAPGKGLEYVGAISGDGYITHYGAAVKGRATISRDNGQSTVRLQLNNLRAEDTATYYCTRGGGGNIDAWGHGTEVIVSSTS
notes: domain: fragment crystallizable region Fc (rFc); scFv fused with rabbit Fc, expressed from modified pCEP4; also called 3B20-rFc; scFv(3B20)-rFc fusion protein; not shown: rabbit antibody fragment crystallizable region Fc (rFc)
binding [1]: binds | binding [2]: binds
